Measured values from PubChem BioAssay AID587 (National Center for Advancing Translational Sciences (NCATS), 2007).
The whole screen tested about 59,000 compounds, of which about 35 (0.06%) were called active. The shares of active, inactive and inconclusive entries below differ from those in the screen. Rule as the data show it: active = max dye-equivalent concentration above about 10 nM; inconclusive = between about 1.1 nM and that limit; inactive = weaker than that.

Assay: qHTS Assay for Spectroscopic Profiling in Texas Red Spectral Region
Conditions: Compound fluorescence, Texas Red channel, 547/618 nm; hits give high values
Summary of the method: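 qHTS profiling of intrinsic compound fluorescence; 100 mM Tris pH 8.0; 15 min RT; ex 547 / em 618 nm; response expressed as Texas Red dye-equivalent concentration from six-point plate standard.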
With `COc1ccc2[nH]cc(C(=O)CN3CCCC(C)C3)c2c1` (stereo unspecified) the max dye-equivalent concentration was inconclusive: 1.1 nM. With `CN(C)/C=C1/Nc2ccccc2C1=O` the max dye-equivalent concentration was “inactive”. For `COc1ccc(S(=O)(=O)Nc2cc(C)c(O)cc2C(C)C)cc1`, the max dye-equivalent concentration was inconclusive: 1.2 nM. For `CSc1ccc(C2C(C#N)=C(N)Oc3c2ccc(=O)c2c(C)oc(C)c32)cc1` (stereo unspecified), the max dye-equivalent concentration was “inactive”. For `COc1ccc(C(C)=O)cc1COC(=O)c1cnc(C)cn1`, the max dye-equivalent concentration was inconclusive: 1.8 nM. For `CCOC(=O)Cn1c(=O)oc2cc(S(=O)(=O)NCCc3ccc(OCC)c(OCC)c3)ccc21`, the max dye-equivalent concentration was inconclusive: 1.6 nM. In the case of `CNc1sc(C(=O)c2cccs2)c(N)c1-c1nc2ccccc2s1`, the max dye-equivalent concentration is reported as inconclusive: 1.1 nM. In the case of `O=C1NCCN1Cc1cccc(Cl)c1`, the max dye-equivalent concentration is reported as inconclusive: 1.2 nM. With `Cc1sccc1C1C(C#N)=C(N)SC(N)=C1C#N` the max dye-equivalent concentration was “inactive”. For `Cc1nc2c(oc3ccccc32)c(=O)o1`, the max dye-equivalent concentration was inconclusive: 1.1 nM. For `CCOC(=O)c1ccc(-n2ncc(C(=O)OCC)c2N)cc1`, the max dye-equivalent concentration was inconclusive: 1.3 nM. For `O=C(COC(=O)C1CCCN1C(=O)c1cccs1)c1ccccc1` (stereo unspecified), the max dye-equivalent concentration was inconclusive: 2.4 nM. In the case of `S=c1[nH]nc(C2COc3ccccc3O2)o1` (stereo unspecified), the max dye-equivalent concentration is reported as inconclusive: 1.1 nM. For `c1ccc([C@H](c2cccc3c2ccc2ccccc23)[C@H](c2ccccc2)c2cccc3c2ccc2ccccc23)cc1`, the max dye-equivalent concentration was “inactive”. For `COc1cnn(-c2ccccc2)c(=O)c1N(C)C`, the max dye-equivalent concentration was inconclusive: 1.1 nM. For `N#CCSc1nnc(Cc2ccc3c(c2)OCO3)o1`, the max dye-equivalent concentration was inconclusive: 1.6 nM. With `Cc1cn([C@H]2C[C@H](O)[C@@H](COC(N)=O)O2)c(=O)[nH]c1=O` the max dye-equivalent concentration was inconclusive: 1.1 nM. In the case of `Cc1ccccc1NC(=O)Cn1c(C)nc2ccc(NC(=O)C3CC3)cc2c1=O`, the max dye-equivalent concentration is reported as inconclusive: 1.2 nM. With `N#CCSCC(=O)Nc1ccccc1` the max dye-equivalent concentration was inconclusive: 1.1 nM. With `COc1ccc(S(=O)(=O)NCCC(=O)NCc2ccccc2)cc1` the max dye-equivalent concentration was inconclusive: 1.9 nM. In the case of `N=c1nc(N2CCCCC2)cc(N)n1O`, the max dye-equivalent concentration is reported as inconclusive: 1.1 nM. For `COc1ccc(N2CCN(C(=O)CSc3nnnn3-c3ccc4c(c3)OCCO4)CC2)cc1`, the max dye-equivalent concentration was inconclusive: 1.6 nM. For `CC(=O)N1CC=C2C(C#N)=C(N)C(C#N)(C#N)C(C)C2C1` (stereo unspecified), the max dye-equivalent concentration was “inactive”. With `C=CCN(C(=O)CN1CCOCC1)c1nc(C)c(-c2ccccc2)s1` the max dye-equivalent concentration was inconclusive: 1.3 nM. In the case of `O=C(Nc1ccc2c(c1)oc1ccccc12)c1cccnc1`, the max dye-equivalent concentration is reported as inconclusive: 1.2 nM. With `CN(C)C[C@H]1CCC[C@@H](CN(C)C)C1=O` the max dye-equivalent concentration was inconclusive: 1.1 nM.
